In patent US20250130225A1, “SUBSTRATES FOR IMAGING GLUCOCEREBROSIDASE ACTIVITY” (SIMON FRASER UNIVERSITY, priority 2021, published 2025):

Tests used:
Format in all cases: cell-based, human
SK-N-SH cells = test: Cellular retention of fluorescent signal in live SK-N-SH cells; conditions: substrate 10 μM for 2 h, washed, media with AT3375 10 μM; imaged 0 h to 3 h
[1] = test system: GCase activity in SK-N-SH cells; test: Live cell high content imaging of substrate turnover in SK-N-SH cells
[2] = test system: GCase activity in fixed SK-N-SH cells; test: High content imaging of substrate 4 and 9b in fixed SK-N-SH cells; conditions: for dose dependence of signal intensity in fixed cells: 5 μM vs 10 μM substrate, 3 h, paraformaldehyde fixed

SMILES	stability of signal intensity after replacement of media (SK-N-SH cells)	dose dependence of fluorescence per cell [1]	time dependence of fluorescence per cell ([1]; various substrate concentrations)	dose dependence of signal intensity in fixed cells [2]	stability of signal after paraformaldehyde fixation ([2]; fixed SK-N-SH cells)	time dependence of fluorescence per cell in fixed cells ([2]; fixed SK-N-SH cells, various substrate concentrations)
COc1cc(/N=N/c2ccc(C)cc2[N+](=O)[O-])c(C)cc1/N=N/c1ccc(N(C)CCCC(=O)NCCCO[C@@H]2O[C@H](COCc3cn(CCCNC(=O)[C@H](CCCCN(C)C)NC(=O)CCC4=[N+]5C(=Cc6c(C)cc(C)n6[B-]5(F)F)C=C4)nn3)[C@@H](O)[C@H](O)[C@H]2O)cc1 [substrate 1, (S)-2-(3-(5,5-difluoro-7,9-dimethyl-dipyrrolo[1,2-c:2′,1′-f][1,3,2]diazaborinin-4-ium-5-uid-3-yl)propanamido)-6-(dimethylamino)-N-(3-(4-((((2R,3S,4S,5R,6R)-3,4,5-trihydroxy-6-(3-(4-((4-((E)-(2-methoxy-5-methyl-4-((E)-(4-methyl-2-nitrophenyl)diazenyl)phenyl)diazenyl)phenyl)(methyl)amino)butanamido)propoxy)tetrahydro-2H-pyran-2-yl)methoxy)methyl)-1H-1,2,3-triazol-1-yl)propyl)hexanamide]	stable at all time points measured	linear increase in fluorescence	linear increase from 30 minutes to 3 hours			
COc1cc(/N=N/c2ccc([N+](=O)[O-])cc2)c(OC)cc1/N=N/c1ccc(N(C)CCCC(=O)NCCCO[C@@H]2O[C@H](COCc3cn(CCCNC(=O)[C@H](CCCCNC(=O)OCC4[C@H]5CCc6nnn(CCCCC(NC(C)=O)C(=O)NC(CCCCN)C(=O)NC(CCCCN)C(=O)NC(CCCCN)C(N)=O)c6CC[C@@H]45)NC(=O)c4ccc(-c5c6ccc(=[N+](C)C)cc-6oc6cc(N(C)C)ccc56)c(C(=O)O)c4)nn3)[C@@H](O)[C@H](O)[C@H]2O)cc1 (some centres unmarked) [substrate 4]				doubling in fluorescent signal intensity with a doubling in substrate concentration	stable over the course of 6 days	linear increase from 30 minutes to 3 hours
COc1cc(/N=N/c2ccc([N+](=O)[O-])cc2)c(OC)cc1/N=N/c1ccc(N(C)CCCC(=O)NCCCO[C@@H]2O[C@H](COCc3cn(CCNC(=O)CCC4=[N+]5C(=Cc6ccc(-c7ccc[nH]7)n6[B-]5(F)F)C=C4)nn3)[C@@H](O)[C@H](O)[C@H]2O)cc1 [substrate 9b, 3-(3-((2-(4-((((2R,3S,4S,5R,6R)-6-(3-(4-((4-((E)-(2,5-dimethoxy-4-((E)-(4-nitrophenyl)diazenyl)phenyl)diazenyl)phenyl)(methyl)amino)-butanamido)propoxy)-3,4,5-trihydroxytetrahydro-2H-pyran-2-yl)methoxy)methyl)-1H-1,2,3-triazol-1-yl)ethyl)amino)-3-oxopropyl)-5,5-difluoro-7-(1H-pyrrol-2-yl)-5H-dipyrrolo[1,2-c:2′,1′-f][1,3,2]diazaborinin-4-ium-5-uide, reference compound]	showed decay within the first 30 minutes			no dose dependent difference in signal intensity		
